Measurements reported in US20190309300A1 (TECHNION RESEARCH AND DEVELOPMENT FOUNDATION, published 2019).
Results are given in words; binding and its absence hold for the method and conditions named. Binding seen in cells or lysates may run through a third protein. Some entries that bind do so weakly or less than the wild type. For some of these results: Where a sequence is shown, tags or fusion partners need not be part of it.

Sequences of proteins named here, by UniProt entry; tags and fusion partners are left off. A change or cut given only in a name is not applied to a line headed by its entry.
UniProt P56524: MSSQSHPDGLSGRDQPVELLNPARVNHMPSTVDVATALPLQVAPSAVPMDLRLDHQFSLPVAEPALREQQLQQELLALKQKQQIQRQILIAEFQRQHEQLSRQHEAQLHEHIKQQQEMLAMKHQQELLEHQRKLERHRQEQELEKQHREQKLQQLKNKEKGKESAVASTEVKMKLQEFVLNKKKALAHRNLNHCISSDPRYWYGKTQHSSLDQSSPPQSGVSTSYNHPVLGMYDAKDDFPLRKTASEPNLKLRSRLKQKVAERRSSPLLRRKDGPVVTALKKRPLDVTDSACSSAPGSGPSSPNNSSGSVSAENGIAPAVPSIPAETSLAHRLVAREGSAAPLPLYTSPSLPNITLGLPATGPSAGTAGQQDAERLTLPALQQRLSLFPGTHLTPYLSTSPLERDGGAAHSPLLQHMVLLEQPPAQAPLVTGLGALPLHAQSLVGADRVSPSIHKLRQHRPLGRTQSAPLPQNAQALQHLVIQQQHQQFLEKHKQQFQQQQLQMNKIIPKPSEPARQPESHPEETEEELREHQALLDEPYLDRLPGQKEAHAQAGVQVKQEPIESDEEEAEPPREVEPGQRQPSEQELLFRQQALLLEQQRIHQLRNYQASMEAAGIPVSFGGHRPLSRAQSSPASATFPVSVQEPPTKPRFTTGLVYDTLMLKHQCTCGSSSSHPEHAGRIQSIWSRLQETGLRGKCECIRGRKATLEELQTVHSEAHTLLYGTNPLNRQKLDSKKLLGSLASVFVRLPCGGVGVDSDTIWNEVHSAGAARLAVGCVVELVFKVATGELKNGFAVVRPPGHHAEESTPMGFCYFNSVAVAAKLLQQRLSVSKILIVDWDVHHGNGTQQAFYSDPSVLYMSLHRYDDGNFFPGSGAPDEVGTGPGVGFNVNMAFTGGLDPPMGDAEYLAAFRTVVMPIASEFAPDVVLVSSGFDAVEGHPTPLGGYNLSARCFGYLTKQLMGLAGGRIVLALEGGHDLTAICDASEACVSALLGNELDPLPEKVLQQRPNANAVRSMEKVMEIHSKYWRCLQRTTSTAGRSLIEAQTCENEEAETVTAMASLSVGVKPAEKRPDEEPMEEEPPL

Key:
[1] = molecular target: T1, flag tagged full length HDAC4 (human, UniProt P56524 1-1084); assay: co-immunoprecipitation, IP anti-Flag, blot anti-HA (FIG. 7B)
T1 construct: Full length, expressed in transfected cells and immunoprecipitated from lysate; also called Flag-HDAC4; pcDNA HDAC4-flag; not shown: Flag tag
Method: Cultured cells were washed with ice-cold phosphate-buffered saline (PBS) buffer and lysed in buffer containing 50 mM Tris, pH 7.5, 150 mM NaCl, 1 mM EDTA, and 1% NP-40. 400 μg of protein was immunoprecipitated with anti-Flag (Sigma-Aldrich), or IgG antibodies (negative control) and protein A/G agarose beads (Santa Cruz Biotechnology, Inc.) as described previously [Kehat I, et al., Modulation of chromatin position and gene expression by HDAC4 interaction with nucleoporins. J Cell Biol 2011, 193, 21-29]. Beads were washed three times with buffer and suspended in 30 μl of Laemmli buffer. Proteins were separated on an SDS gel, blotted, and detected with primary antibody recognizing HA (Santa Cruz Biotechnology, Inc. sc-805) or flag (Sigma-Aldrich).

[2] = molecular target: T1, flag tagged full length HDAC4; assay: summary of Example 6 (RRS, co-immunoprecipitation, co-localization)
[3] = molecular target: 3HA tagged full length ENIGMA (Pdlim7) (mouse) (UniProt Q3TJD7); assay: co-immunoprecipitation, IP anti-HA, blot anti-His (FIGS. 7D and 7E)
[4] = molecular target: 3HA tagged full length ENIGMA (Pdlim7) (mouse) (UniProt Q3TJD7); assay: co-immunoprecipitation, IP anti-HA, blot anti-His (FIG. 7D)
[5] = molecular target: T1, flag tagged full length HDAC4; assay: co-immunoprecipitation, IP anti-Flag, blot anti-HA (FIG. 7C)
[6] = molecular target: T1, flag tagged full length HDAC4; assay: summing-up sentence of the RRS and co-immunoprecipitation mapping

## 3HA tagged full length ENIGMA (Pdlim7) (from UniProt Q3TJD7 1-457)
[1]
  binding: binds
[2]
  binding: binds

## 6xHis tagged HDAC4 fragment of amino acids 3-222 (from UniProt P56524 3-222)
[3]
  binding: binds

## 6xHis tagged whole N-terminal fragment of HDAC4 (aa 3-628) (from UniProt P56524 3-628)
[3]
  binding: binds
[4]
  binding: binds

B1: 3HA tagged ENIGMA construct containing LIM domains 2+3 (protein, mouse, UniProt Q3TJD7 339-457, looked up, not shown: small tags and cut ends)
chain: PNCAKCKKKITGEIMHALKMTWHVHCFTCAACKTPIRNRAFYMEEGAPYCERDYEKMFGTKCRGCDFKIDAGDRFLEALGFSWHDTCFVCAICQINLEGKTFYSKKDKPLCKSHAFSHV
[5]
  binding: binds

B2: 3HA tagged ENIGMA construct containing LIM domains 1+2 (protein, mouse, UniProt Q3TJD7 280-398, looked up, not shown: small tags and cut ends)
chain: PVCHQCHKIIRGRYLVALGHAYHPEEFVCSQCGKVLEEGGFFEEKGAIFCPSCYDVRYAPNCAKCKKKITGEIMHALKMTWHVHCFTCAACKTPIRNRAFYMEEGAPYCERDYEKMFGT
[5]
  binding: binds

B3: 3HA tagged ENIGMA fragment containing only the three LIM domains (protein, mouse, UniProt Q3TJD7 280-457, looked up, not shown: small tags and cut ends)
chain: PVCHQCHKIIRGRYLVALGHAYHPEEFVCSQCGKVLEEGGFFEEKGAIFCPSCYDVRYAPNCAKCKKKITGEIMHALKMTWHVHCFTCAACKTPIRNRAFYMEEGAPYCERDYEKMFGTKCRGCDFKIDAGDRFLEALGFSWHDTCFVCAICQINLEGKTFYSKKDKPLCKSHAFSHV
[6]
  binding: binds
[1]
  binding: binds
[5]
  binding: binds
